This is an account of results in paper PMC12140118.

By UniProt entry, the sequences of proteins in these tests, tags left out.
UniProt P21187: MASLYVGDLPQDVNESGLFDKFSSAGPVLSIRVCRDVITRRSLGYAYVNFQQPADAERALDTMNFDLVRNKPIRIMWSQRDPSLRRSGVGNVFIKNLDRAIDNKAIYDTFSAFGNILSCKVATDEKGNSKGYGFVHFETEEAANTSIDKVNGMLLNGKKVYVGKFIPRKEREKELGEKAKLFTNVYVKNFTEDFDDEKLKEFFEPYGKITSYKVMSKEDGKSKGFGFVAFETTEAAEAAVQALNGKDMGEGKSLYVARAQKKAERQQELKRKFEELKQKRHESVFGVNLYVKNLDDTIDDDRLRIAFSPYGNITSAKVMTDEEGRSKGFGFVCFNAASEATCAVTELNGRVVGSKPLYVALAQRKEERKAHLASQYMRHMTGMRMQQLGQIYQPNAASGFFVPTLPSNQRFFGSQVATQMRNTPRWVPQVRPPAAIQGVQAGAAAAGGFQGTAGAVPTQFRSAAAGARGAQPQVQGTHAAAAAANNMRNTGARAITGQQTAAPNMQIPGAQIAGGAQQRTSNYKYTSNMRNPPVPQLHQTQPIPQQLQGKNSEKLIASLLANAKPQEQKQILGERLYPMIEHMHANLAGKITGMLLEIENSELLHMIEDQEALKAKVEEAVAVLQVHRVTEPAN

Results are given in words; binding and its absence hold for the method and conditions named. In cells and extracts the contact can be indirect. A yes stands for co-enrichment or nearness to the bait. Other partners may have been found. For some of these results: Tags and fused reporters may be left off the sequences shown.

Test in all cases: affinity purification with mass spectrometry; Top3β::eGFP (wild type or mutant) captured from extracts of 0-2 hours old embryos by mouse anti-GFP antibody on Protein G magnetic beads; 25 mM Hepes pH 7.4, 150 mM NaCl, 0.5 mM EDTA, 1 mM DTT; 6 hours at 4°C; abundance compared with an eGFP-only control by quantitative MS
For experiment [1], the target named is T1, Top3β::eGFP (Drosophila Topoisomerase 3β, wild type, fused to eGFP) (Drosophila melanogaster) (UniProt O96651).
T1 sequence: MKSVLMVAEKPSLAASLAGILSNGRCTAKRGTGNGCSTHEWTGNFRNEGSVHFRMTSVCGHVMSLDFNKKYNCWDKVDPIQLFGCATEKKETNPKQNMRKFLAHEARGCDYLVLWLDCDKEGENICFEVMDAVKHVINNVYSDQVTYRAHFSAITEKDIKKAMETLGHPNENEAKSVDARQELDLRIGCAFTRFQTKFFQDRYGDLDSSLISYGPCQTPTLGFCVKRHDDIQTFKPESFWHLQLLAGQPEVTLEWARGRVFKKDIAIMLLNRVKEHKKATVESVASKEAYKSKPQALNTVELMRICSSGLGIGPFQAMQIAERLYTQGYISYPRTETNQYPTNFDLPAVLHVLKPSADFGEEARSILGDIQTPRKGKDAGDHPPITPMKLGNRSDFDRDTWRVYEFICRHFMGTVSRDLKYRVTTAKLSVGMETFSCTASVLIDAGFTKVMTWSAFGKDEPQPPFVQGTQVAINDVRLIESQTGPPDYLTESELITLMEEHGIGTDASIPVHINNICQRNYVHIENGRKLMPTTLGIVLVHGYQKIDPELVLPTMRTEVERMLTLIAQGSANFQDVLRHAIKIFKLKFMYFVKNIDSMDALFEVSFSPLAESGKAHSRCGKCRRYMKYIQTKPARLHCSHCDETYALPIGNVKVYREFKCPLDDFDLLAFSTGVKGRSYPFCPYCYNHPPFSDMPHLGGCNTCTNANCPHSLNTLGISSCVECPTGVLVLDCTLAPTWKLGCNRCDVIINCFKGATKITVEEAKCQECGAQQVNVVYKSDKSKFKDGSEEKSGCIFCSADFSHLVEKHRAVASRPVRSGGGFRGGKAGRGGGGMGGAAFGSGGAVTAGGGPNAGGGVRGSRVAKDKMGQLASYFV

Experiment [2] concerns the target T2, Top3β^Y332F::eGFP (Drosophila melanogaster) (UniProt O96651).
T2 sequence: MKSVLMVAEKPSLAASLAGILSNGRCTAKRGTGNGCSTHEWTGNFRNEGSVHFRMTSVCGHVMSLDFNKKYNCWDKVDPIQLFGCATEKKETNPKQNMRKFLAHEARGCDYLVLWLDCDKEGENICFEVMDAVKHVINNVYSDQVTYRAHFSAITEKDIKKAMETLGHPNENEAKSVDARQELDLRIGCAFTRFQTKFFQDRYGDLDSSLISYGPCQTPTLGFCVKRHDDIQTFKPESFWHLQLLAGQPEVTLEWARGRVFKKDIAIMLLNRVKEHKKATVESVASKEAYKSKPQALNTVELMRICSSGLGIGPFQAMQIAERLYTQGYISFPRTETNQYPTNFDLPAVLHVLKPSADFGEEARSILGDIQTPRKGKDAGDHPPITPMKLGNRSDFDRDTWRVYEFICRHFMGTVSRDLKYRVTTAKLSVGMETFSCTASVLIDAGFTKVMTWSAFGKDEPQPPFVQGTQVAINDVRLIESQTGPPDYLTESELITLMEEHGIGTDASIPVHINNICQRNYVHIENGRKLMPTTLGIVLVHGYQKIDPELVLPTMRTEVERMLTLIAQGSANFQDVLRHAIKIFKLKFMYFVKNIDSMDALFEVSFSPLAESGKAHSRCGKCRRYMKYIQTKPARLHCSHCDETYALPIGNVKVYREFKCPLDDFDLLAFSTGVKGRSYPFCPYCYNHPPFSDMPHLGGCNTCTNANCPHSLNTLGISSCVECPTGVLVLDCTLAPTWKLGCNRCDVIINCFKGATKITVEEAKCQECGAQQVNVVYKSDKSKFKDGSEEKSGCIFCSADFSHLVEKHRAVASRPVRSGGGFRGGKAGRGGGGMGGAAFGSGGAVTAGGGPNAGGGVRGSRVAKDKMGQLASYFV

The target of experiment [3] is Top3β^ΔRGG::eGFP (Drosophila melanogaster) (UniProt O96651).

Take pAbp (from UniProt P21187 1-634): the binding result in experiment [1] is “binds”.

B1: eIF4E1 (protein, UniProt P48598 1-259)
chain: MQSDFHRMKNFANPKSMFKTSAPSTEQGRPEPPTSAAAPAEAKDVKPKEDPQETGEPAGNTATTTAPAGDDAVRTEHLYKHPLMNVWTLWYLENDRSKSWEDMQNEITSFDTVEDFWSLYNHIKPPSEIKLGSDYSLFKKNIRPMWEDAANKQGGRWVITLNKSSKTDLDNLWLDVLLCLIGEAFDHSDQICGAVINIRGKSNKISIWTADGNNEEAALEIGHKLRDALRLGRNNSLQYQLHKDTMVKQGSNVKSIYTL
For the molecule B1, in experiment [1], the binding entry is given as “binds”.

B2: Cup (protein, UniProt Q9VMA3 1-1117)
chain: MQMAEAEQENGAGALKIATNAGATDRPAHQQLPLPVEDQQDEVLTPAEKGKFEYPPPPPPPTPVQAPLATKATALNASQEHDDDEANSEKWEDPCAPPPPPPLPTSAFLATGLGYLKLPAFKLKDALEKAITKLEANKRTLKASPESSRSIKNKNVVALEMLPRRSNPETIGDGSMLASTSTAVMLQTKKPAVIVEMERRCKIINLLAKQNQILESISGEAIPMHGPSKHLHEDEGLTLQVLSARASTPYTQPSSMLSCTAVSCDLEHDSPRKQVASKEAVPEQQSSQVQQKRPPSTGIHKPGSLRAPKAVRPTTAPVVSSKPVKSYTRSRLMDIRNGMFNALMHRSKESFVMPRIATCDDIELEGRLRRMNIWRTSDGTRFRTRSTTANLNMNNNNNNECMPAFFKNKNKPNLISDESIIQSQPPQPQTEFQDPAIVNQRRIGSGRLNHSKWGYNDEDYHSYHNGKSQHMEEVNSKNSKNMTVLQFFDNGEISSQPQRRPNTPVMGMSINRSENDTLHSNESSEDLSRANENYVKRVMSGFLVVSKPKSRDVEDRHHRRYRNQNEEPEWFSCGPTSRLDTIELCGFDEDEEKMLKEGNKNHGLGETERETSKQKMDHKYKWTHAEPMGRSKYMPKHDTNNNHNVENMNNVMATEHQQQKEEKRPGSGRSFQFDKFNQSQQNYESSSYVNHQQPPQTQPQQMQQQSNTNTNNSKFMSFFANEGNSSSSSLNEFFKQAINQGHGNNPEQPKSLGHIGQMPSVDQLEAKWRRNSLNNVGETANKQTDNFQKLIGSLSSAKPQSQAVGYDAISNFIMQQQQYQQQQQKQHLIIQQQQQHTAFLASLQLKAILGRADTQLLLLRLTKGEISKHGLLVQLANPRLTDMDREAITAVLQFTNTQQQQQQHKQQLDMLSSTVIASQLQNLHNLAIVQQTLAARQQPQHNPQTQAPHQLSQEDLQAHANVIMRNAVMKRKIEEQTSKLINGGAKHQAQQQYLNRGQQRQARPDANSNALLHALISGGGNNHASGYPMNGQPQKHHSNLRFGDNQNFQSFESNQPHFATQYKQQYQQSQQQHPHQQPQQLNSLHQNNAGAVNSFNKAQMQAQSAISMLPNSGDEFH
On to B2, for which the binding result in experiment [1] was “binds”.

B3: Me31B (protein, UniProt P23128 1-459)
chain: MMTEKLNSGHTNLTSKGIINDLQIAGNTSDDMGWKSKLKLPPKDNRFKTTDVTDTRGNEFEEFCLKRELLMGIFEKGWERPSPIQEAAIPIALSGKDVLARAKNGTGKTGAYCIPVLEQIDPTKDYIQALVMVPTRELALQTSQICIELAKHLDIRVMVTTGGTILKDDILRIYQKVQLIIATPGRILDLMDKKVADMSHCRILVLDEADKLLSLDFQGMLDHVILKLPKDPQILLFSATFPLTVKNFMEKHLREPYEINLMEELTLKGVTQYYAFVQERQKVHCLNTLFSKLQINQSIIFCNSTQRVELLAKKITELGYCCYYIHAKMAQAHRNRVFHDFRQGLCRNLVCSDLFTRGIDVQAVNVVINFDFPRMAETYLHRIGRSGRFGHLGIAINLITYEDRFDLHRIEKELGTEIKPIPKVIDPALYVANVGASVGDTCNNSDLNNSANEEGNVSK
Take B3: the binding result in experiment [1] is “binds”.

B4: Ago2 (protein, UniProt Q9VUQ5 1-1214)
chain: MGKKDKNKKGGQDSAAAPQPQQQQKQQQQRQQQPQQLQQPQQLQQPQQLQQPQQQQQQQPHQQQQQSSRQQPSTSSGGSRASGFQQGGQQQKSQDAEGWTAQKKQGKQQVQGWTKQGQQGGHQQGRQGQDGGYQQRPPGQQQGGHQQGRQGQEGGYQQRPPGQQQGGHQQGRQGQEGGYQQRPSGQQQGGHQQGRQGQEGGYQQRPPGQQQGGHQQGRQGQEGGYQQRPSGQQQGGHQQGRQGQEGGYQQRPPGQQQGGHQQGRQGQEGGYQQRPPGQQQGGHEQGRQGQEGGYQQRPSGQQQGGHQQGRQGQEGGYQQRPSGQQQGGHQQGRQGQEGGYQQRPSGQQQGGHQQGRQGQEGGYQQRPPGQQPNQTQSQGQYQSRGPPQQQQAAPLPLPPQPAGSIKRGTIGKPGQVGINYLDLDLSKMPSVAYHYDVKIMPERPKKFYRQAFEQFRVDQLGGAVLAYDGKASCYSVDKLPLNSQNPEVTVTDRNGRTLRYTIEIKETGDSTIDLKSLTTYMNDRIFDKPMRAMQCVEVVLASPCHNKAIRVGRSFFKMSDPNNRHELDDGYEALVGLYQAFMLGDRPFLNVDISHKSFPISMPMIEYLERFSLKAKINNTTNLDYSRRFLEPFLRGINVVYTPPQSFQSAPRVYRVNGLSRAPASSETFEHDGKKVTIASYFHSRNYPLKFPQLHCLNVGSSIKSILLPIELCSIEEGQALNRKDGATQVANMIKYAATSTNVRKRKIMNLLQYFQHNLDPTISRFGIRIANDFIVVSTRVLSPPQVEYHSKRFTMVKNGSWRMDGMKFLEPKPKAHKCAVLYCDPRSGRKMNYTQLNDFGNLIISQGKAVNISLDSDVTYRPFTDDERSLDTIFADLKRSQHDLAIVIIPQFRISYDTIKQKAELQHGILTQCIKQFTVERKCNNQTIGNILLKINSKLNGINHKIKDDPRLPMMKNTMYIGADVTHPSPDQREIPSVVGVAASHDPYGASYNMQYRLQRGALEEIEDMFSITLEHLRVYKEYRNAYPDHIIYYRDGVSDGQFPKIKNEELRCIKQACDKVGCKPKICCVIVVKRHHTRFFPSGDVTTSNKFNNVDPGTVVDRTIVHPNEMQFFMVSHQAIQGTAKPTRYNVIENTGNLDIDLLQQLTYNLCHMFPRCNRSVSYPAPAYLAHLVAARGRVYLTGTNRFLDLKKEYAKRTIVPEFMKKNPMYFV
B4: the binding entry in experiment [1], in experiment [2] and in experiment [3] was “binds” each time.
